## Library screen at single concentrations

Measurements from “University of Dundee, Small-Polar-MMV Screening Library” (2021), ChEMBL document CHEMBL3988442.

Mtb cholesterol medium: 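Whole-cell growth test on Mycobacterium tuberculosis, read after 4 days in a medium based on cholesterol and the lipid DPPC; the read-out is not stated. Concentration: 50 µM. The record gives no direction; compounds that gave an IC50 in retests scored well above the rest, so higher reads as more growth inhibition. About 69,000 compounds were tested under these conditions; 0.54% (about 370) showed 50% or more at least once.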
Mtb glucose medium: 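Phenotypic screen: M. tuberculosis growth, glucose 7H9 medium, 3 days; the read-out is not stated. Compounds at 50 µM. Higher reads as more growth inhibition (inferred: compounds with an IC50 in retests scored well above the rest). About 69,000 compounds were tested under these conditions; 1.1% (about 760) showed 50% or more at least once.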

Results are given as percent effect.
The controls that fix the scale are not given in the record; negative values are as filed.
The compounds are a random part of those screened.
Two or more numbers in one place are separate tests of the same structure; such repeats can differ widely.

Compound	Mtb cholesterol medium	Mtb glucose medium
[H][C@@]12OCCN(Cc3ccc(F)cc3)[C@@]1([H])CC[C@H]2OCC	-20	0.5482
O=C(c1ccccc1F)N1CCN(c2ccc(-n3cccc3)nn2)CC1	12.79	8.31
O=C(O)C(F)(F)F.O=C(O)C(F)(F)F.[H][C@]12CCN(C(=O)c3cccs3)CC[C@]1([H])N(CCN(C)C)CCO2	-6.29	-6.66 and -1.945
CN1Cc2[nH]nc(COCC3CC3)c2C1.O=C(O)C(F)(F)F.O=C(O)C(F)(F)F	6.118	6.341 and 0.9239
CC(=O)N1CCCC2(CN(Cc3ccccc3C(F)(F)F)CCO2)C1 (centres undefined)	-4.271	12.89 and 1.49
[H][C@@]12C[C@H](C(=O)N3CCCCO3)CN(C(=O)c3ccoc3C)[C@]1([H])CCO2	3.295	1.92 and -5.142
O=C(c1ccoc1)N1CCC2(C1)CN(c1nccs1)C2	6.306	7.436 and 6.391
O=C(CS(=O)(=O)c1ccccc1Cl)NC1CCCCNC1=O (centres undefined)	-28.23	-12.88
CC(Cn1cccn1)NC(=O)NCc1ccoc1 (centres undefined)	-1.637	5.494
O=C(O)C(F)(F)F.[H][C@@]12COC[C@]1([H])[C@@H](OCC(=O)N(C)C)CN2Cc1ccsc1	1.434	-1.034
COCCN1C(=O)CCC12CCN(C(=O)CC1CC1)CC2	11.44	-25.05
CC(C)c1cc(CN2CCNCC2)no1	32.29	85.24
CNC(=O)c1cn[nH]c1C1CCN(Cc2ccccc2OC)C1 (centres undefined)	11.3	11.07
O=C(c1ccc2c(c1)COC2)N1CCN(CCO)CC1	8.399	-8.557
Cc1cc(NS(=O)(=O)c2cccs2)ccc1-n1cccc1C(=O)O	-6.371 and -6.201	34.16
O=C(NCCCN1CCOCC1)c1cccc(OCc2ccccc2)c1	7.489	20.4
CCNC(=O)N1CCC(=Cc2ccccc2)CC1	12.64	-1.807 and 18.96
O=C1NCCN1CCNCC1(O)CCCN(CCC2CCCCC2)C1=O (centres undefined)	-5.156 and -9.164	-9.91
NCCn1nc(C2CCN(Cc3ccccc3Cl)C2)c2nccnc21 (centres undefined)	53.37	0.1362
COCCNC(=O)c1cc(OC)ccc1Br	-7.038	-37.01
Cc1ccc(CC(=O)NCC(O)c2ccc(Cl)cc2Cl)cn1 (centres undefined)	-5.095	-14.59
Cc1cnc(N2CCC3(CCN(Cc4csc(C)n4)C3=O)C2)nc1.O=C(O)C(F)(F)F (centres undefined)	-2.547	-16.33
Nc1nccnc1C(=O)NCCCNc1ccc(C(F)(F)F)cn1	22.81	35.33
COCCN(C)C(C(=O)O)c1ccc(F)c(Cl)c1 (centres undefined)	-5.853	1.779
Cc1c[nH]nc1C1CCN(S(=O)(=O)N(C)C)CC1	3.242	-12.5
c1cnn(CC2CN(Cc3ccc(-n4ccnc4)cc3)CCO2)c1 (centres undefined)	25.09	29.68
CNc1nc(C)c(C(=O)N2CCC(C(O)Cc3ccccc3)CC2)s1 (centres undefined)	1.674	-1.073 and 13.88
CC(=O)NCCC(=O)Nc1sccc1C(=O)C(C)(C)C	3.562	-5.212
Cc1nc(CN2CCCC(CCc3cccc(C(F)(F)F)c3)C2)co1 (centres undefined)	50.62	50.41
CC(C)N(C)C(=O)C1=NOC2(CCN(C(=O)c3ccncc3)C2)C1 (centres undefined)	-16.43	6.993
O=C(COCC1CCCO1)N(Cc1cccnc1)c1ccc(F)cc1 (centres undefined)	-15.99	-6.417
COc1ccc(C)cc1CC(=O)NC1(C#N)CCOCC1	-25.69	-8.08
CCc1c(C(=O)N2CCN(CC(N)=O)CC2)cnn1C(C)(C)C	6.121	8.963
CN(CCNC(=O)c1ccnc(-n2ccnc2)c1)C1CC1	11.37	20.78
O=C(O)C(F)(F)F.O=C(O)C(F)(F)F.[H][C@@]12CCN(C(=O)c3ccncc3)CC[C@@]1([H])N(c1cccnc1)CCO2	-0.5908	-0.03155 and 0.3576
CCn1cnnc1CNC(=O)N1CCN(c2ccccc2OC)CC1	-19.56	-8.211
Cc1cc(C[C@@H]2COC[C@@H]2NC(=O)CCN2Cc3ccccc3C2)on1	-19.13	-42.43
CC(C)C(C)NC(=O)Nc1cccc2c1CCN(S(C)(=O)=O)C2 (centres undefined)	-3.676 and -9.105	-18.29
Cc1cnn(CC(=O)N2CCC3(CCC(=O)N(CC(C)O)C3)CC2)c1 (centres undefined)	4.402	-4.031
Cc1ccccc1CNC(=O)C1CCN(Cc2nccn2C)CC1	16.7	3.031 and 11.93
CSc1ccc(-c2nc(CN3CCC(C(N)=O)CC3)c(C)o2)cc1	4.704	18.84

Once more, the final 3:

Result for Cc1cnn(CC(=O)N2CCC3(CCC(=O)N(CC(C)O)C3)CC2)c1 (centres undefined) was Mtb cholesterol medium: 4.402%; Mtb glucose medium: -4.031%.
Result for Cc1ccccc1CNC(=O)C1CCN(Cc2nccn2C)CC1 was Mtb cholesterol medium: 16.7%; Mtb glucose medium: 3.031% and 11.93%.
Result for CSc1ccc(-c2nc(CN3CCC(C(N)=O)CC3)c(C)o2)cc1 was Mtb cholesterol medium: 4.704%; Mtb glucose medium: 18.84%.